The target of the assay is C-Jun activation domain-binding protein-1 (JAB1), FLAG-tagged (UniProt Q92905). In words: affinity purification with mass spectrometry; lysate of MDA-MB-231 cells (5 x 10^8) transfected with FLAG-tagged JAB1 loaded onto a FLAG column; complex eluted, SDS-PAGE, silver staining, mass spectrometry.

The chains behind the UniProt entries cited, without tags or fusion partners.
UniProt Q92905: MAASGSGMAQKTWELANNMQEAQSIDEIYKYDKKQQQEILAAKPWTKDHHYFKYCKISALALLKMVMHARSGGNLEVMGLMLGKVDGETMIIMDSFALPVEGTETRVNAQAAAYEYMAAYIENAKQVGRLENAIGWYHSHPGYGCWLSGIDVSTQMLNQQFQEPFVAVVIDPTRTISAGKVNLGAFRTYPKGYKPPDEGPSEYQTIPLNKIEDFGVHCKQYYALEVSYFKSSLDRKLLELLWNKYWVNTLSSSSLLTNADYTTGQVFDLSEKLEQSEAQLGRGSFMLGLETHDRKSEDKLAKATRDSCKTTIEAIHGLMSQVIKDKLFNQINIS
UniProt Q13620: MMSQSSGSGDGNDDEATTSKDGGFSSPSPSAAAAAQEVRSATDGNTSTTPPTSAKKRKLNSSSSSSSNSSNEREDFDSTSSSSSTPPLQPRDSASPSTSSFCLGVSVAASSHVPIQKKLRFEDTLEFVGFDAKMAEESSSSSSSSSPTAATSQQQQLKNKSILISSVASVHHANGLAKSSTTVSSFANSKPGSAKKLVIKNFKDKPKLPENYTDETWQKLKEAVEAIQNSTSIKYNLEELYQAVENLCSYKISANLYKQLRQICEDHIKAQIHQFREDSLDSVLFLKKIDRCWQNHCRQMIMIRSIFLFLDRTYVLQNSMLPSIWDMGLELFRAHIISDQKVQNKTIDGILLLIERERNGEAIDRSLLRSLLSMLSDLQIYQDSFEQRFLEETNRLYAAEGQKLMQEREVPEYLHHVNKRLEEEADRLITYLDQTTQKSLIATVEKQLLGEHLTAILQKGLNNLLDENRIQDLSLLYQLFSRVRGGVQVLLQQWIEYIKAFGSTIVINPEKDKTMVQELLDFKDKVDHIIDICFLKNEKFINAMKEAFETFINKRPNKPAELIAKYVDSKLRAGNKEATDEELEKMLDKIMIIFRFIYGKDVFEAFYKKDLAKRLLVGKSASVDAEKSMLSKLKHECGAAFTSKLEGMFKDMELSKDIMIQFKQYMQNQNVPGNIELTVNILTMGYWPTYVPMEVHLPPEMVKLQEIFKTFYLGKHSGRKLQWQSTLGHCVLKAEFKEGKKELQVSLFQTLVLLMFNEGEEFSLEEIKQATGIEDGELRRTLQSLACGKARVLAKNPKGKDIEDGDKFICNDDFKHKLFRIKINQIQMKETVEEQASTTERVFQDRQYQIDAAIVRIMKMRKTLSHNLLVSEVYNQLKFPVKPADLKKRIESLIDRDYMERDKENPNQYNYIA

Results are given in words; binding and its absence hold for the method and conditions named. Binding seen in cells or lysates may run through a third protein. Here binding means that the protein was enriched with, or labelled near, the bait; the list need not be complete.

Turning to “CUL4B (Cullin 4B; endogenous, MDA-MB-231) (from UniProt Q13620 1-913)”, the binding result was “binds”.

For the origin of these results see paper PMC13247160.
